Hit rate of the full screen: of about 300,000 compounds, about 3,700 (1.2%) were called active. Inconclusive results, whose numbers are uncertain, are shown with a selection of clear calls. Calls follow the shape of the full dose curve; tested in HEK293 cells. Potencies beside an inconclusive call are fits to weak or partial responses and may not hold up.
Assay: qHTS for Inhibitors of binding or entry into cells for Lassa Virus; also: nearly all actives have a fitted effect of over 50% in size
Settings: Lassa virus pseudotype entry inhibition, cell reporter; series mostly up to 37.9 µM
Potency is read from the fitted curve at half-maximal effect.

Row | SMILES | Potency
1 | COC(=O)c1ccc(NC(=O)CN(CCc2ccccc2)S(=O)(=O)c2ccc(OC)cc2)cc1 | inconclusive: 35.5 µM [inhibitor, single point]
2 | O=C(Cn1[nH]c(=O)c2ccccc2c1=O)NC1CCN(Cc2ccccc2)CC1 | inconclusive: 3.26 µM [inhibitor, partial curve, poor fit]
3 | COc1ccc(CCNC(=O)c2cc(-c3cc(Cl)cc(Cl)c3)oc2C)cc1 | inconclusive: 0.146 µM [inhibitor, full curve, poor fit]
4 | O=C(CSc1nc2ccsc2c(=O)n1CC1CCC(C(=O)O)CC1)c1ccc(Cl)cc1 (stereo not drawn) | inconclusive: 1 µM [inhibitor, single point]
5 | Fc1ccccc1CSc1nc2ncccc2[nH]1 | inactive
6 | S=C(NCCN1CCOCC1)NC1CCCC1 | inactive
7 | COc1ccc2c(C)cc(N3CCOCC3)nc2c1 | inconclusive: 20 µM [activator, partial curve, poor fit]
8 | N#Cc1ccc(C(=O)NCc2ccc3c(c2)CCN3C(=O)c2ccc(F)cc2)cc1 | inconclusive: 31.6 µM [activator, single point]
9 | CCc1ccc(OCC(=O)NC(NC(=S)Nc2ccccc2)C(Cl)(Cl)Cl)cc1 (stereo not drawn) | inconclusive: 1 µM [inhibitor, single point]
10 | COc1cc(/C=C2\SC(=Nc3ccccc3)NC2=O)cc(Cl)c1O | inconclusive: 8.91 µM [inhibitor, partial curve]
11 | CCCC(=O)n1nc(NCc2ccc(OC)cc2)nc1NCc1ccc(OC)cc1 | inconclusive: 5.62 µM [inhibitor, full curve]
12 | O=C(c1ccc(N2CCCS2(=O)=O)cc1)N1CCN(c2ccc(F)cc2)CC1 | inconclusive: 5.62 µM [inhibitor, single point]
13 | CCOC(=O)N1CCN(c2ccc(C(=O)c3ccccc3)cc2F)CC1 | inconclusive: 35.5 µM [inhibitor, single point]
14 | O=C(Nc1cccnc1Cl)c1cc(-c2ccc(F)cc2)on1 | inactive
15 | Cc1ccccc1Cn1c2ccccc2c2cnn(CC(=O)NC(C)CCc3ccccc3)c(=O)c21 (stereo not drawn) | inconclusive: 6.31 µM [inhibitor, partial curve]
16 | CC(=O)SC1CC2=CC(=O)CCC2(C)C2CCC3(C)C(CCC34CCC(=O)O4)C12 (stereo not drawn) | inactive
17 | CCOc1ccc(C2NCCc3cc(OC)c(OC)cc32)cc1OC (stereo not drawn) | inconclusive: 11.2 µM [activator, single point]
18 | COc1ccc(N/C=C/C(=O)c2ccc(C)cc2)c([N+](=O)[O-])c1 | inconclusive: 1.12 µM [activator, single point]
19 | O=[N+]([O-])c1ccc(O)c(C2CCCCC2)c1 | inconclusive: 35.5 µM [inhibitor, single point]
20 | COC(=O)c1ccc(C2c3c(oc4ccccc4c3=O)C(=O)N2c2nc(C)c(C(=O)OC)s2)cc1 (stereo not drawn) | inactive
21 | O=C(Nc1cc(Cl)cc(Cl)c1)c1ccc2c(c1)N(Cc1cccc(Cl)c1)C(=O)c1ccccc1S2=O (stereo not drawn) | inconclusive: 22.4 µM [activator, single point]
22 | CC(C)N(CCNCC(O)COc1ccc(C(C)(C)c2ccccc2)cc1)C(C)C (stereo not drawn) | inconclusive: 1.12 µM [inhibitor, single point]

Random excerpt: 2 compounds from above, in no set order.
Row | SMILES | Potency
3 | COc1ccc(CCNC(=O)c2cc(-c3cc(Cl)cc(Cl)c3)oc2C)cc1 | inconclusive: 0.146 µM [inhibitor, full curve, poor fit]
18 | COc1ccc(N/C=C/C(=O)c2ccc(C)cc2)c([N+](=O)[O-])c1 | inconclusive: 1.12 µM [activator, single point]

The list continues:

Row | SMILES | Potency
23 | CCOc1ccccc1NC(=O)CCN(c1ccc(C)cc1)S(=O)(=O)c1ccccc1 | inconclusive: 3.16 µM [inhibitor, partial curve, poor fit]
24 | CSC1=N/C(=C/c2cccnc2)C(=O)N1Cc1ccccc1 | inconclusive: 6.31 µM [inhibitor, single point]
25 | C(CCc1nn[nH]n1)CCC1CCCCC1 | inactive
26 | O=C(/C=C/c1ccco1)Nc1ccc2c(c1)OCCO2 | inconclusive: 5.01 µM [inhibitor, full curve, poor fit]
27 | COc1ccc(CC(=O)NNS(=O)(=O)c2ccccc2)cc1OC | inactive
28 | Cc1ccc2c(c1)c(=O)c1ccccc1n2CCCC(=O)Nc1cc(Cl)ccc1C | inactive
29 | COc1ccccc1NS(=O)(=O)c1ccc(N/N=C(\C)C(C)C)c([N+](=O)[O-])c1 | inconclusive: 22.4 µM [inhibitor, single point]
30 | O=S1(=O)N=C(N/N=C/c2ccccn2)c2ccccc21 | inconclusive: 35.5 µM [inhibitor, single point]
31 | Cc1cccc(N2C(=O)C(CC(=O)Nc3ccc(Cl)cc3)N(Cc3ccco3)C2=O)c1 (stereo not drawn) | inconclusive: 10 µM [inhibitor, single point]
32 | Cc1ccc(C(=O)NC(C)C(c2cccs2)N2CCCC2)s1 (stereo not drawn) | inactive
33 | Fc1ccccc1N1CCN(C2CCN(Cc3c[nH]c4ccccc34)CC2)CC1 | inconclusive: 23.1 µM [inhibitor, single point]
34 | O=C(NCc1ccco1)/C(=C/c1ccccc1)NC(=O)c1ccco1 | inconclusive: 15.8 µM [activator, partial curve, poor fit]
35 | CCOc1ccc(C(=O)NCCc2sc(-c3ccc(OC)c(OC)c3)nc2C)cc1 | inconclusive: 22.4 µM [inhibitor, single point]
36 | c1csc(-c2nc3ccccc3[nH]2)c1 | inactive
37 | CCOc1ccc(S(=O)(=O)Nc2cccc(C(=O)N3CCN(c4cccc(OC)c4)CC3)c2)cc1 | inconclusive: 12.6 µM [inhibitor, partial curve, poor fit]
38 | CCOC(=O)N/N=C/c1ccc(OCCSc2ccc(Cl)cc2)c(OCC)c1 | inconclusive: 20.6 µM [inhibitor, single point]
39 | O=C(NNc1ncc(C(F)(F)F)cc1Cl)c1c(Cl)cccc1Cl | inconclusive: 0.651 µM [inhibitor, full curve]
40 | CCN(CC)S(=O)(=O)c1ccc(NC(=O)Nc2cccc(C(F)(F)F)c2)cc1 | inconclusive: 16.4 µM [inhibitor, single point]
41 | Cc1ccc2c(CC(=O)Nc3ccc(S(=O)(=O)N4CCCCC4C)cc3)coc2c1 (stereo not drawn) | inactive
42 | Cc1cc(=O)n2c3ccccc3n(C)c2n1 | inactive
43 | Cc1ccc(C(=O)NC(=S)Nc2cccc3c(C)cc(C)nc23)cc1 | inconclusive: 23.1 µM [inhibitor, single point]

Reference: PubChem BioAssay AID540256 (National Center for Advancing Translational Sciences (NCATS), 2011)
